Values of other authors as cited in patent US20160022811A1 (Teva Pharmaceutical Industries Ltd., priority 2013, published 2016).
At least one structure is not confirmed: it was looked up by name or label, or the drawing left a doubt.

Tests used:
MS [1] = conditions: at one year
MS [2] = conditions: two-year study

Q: Which “reduction of relapses compared with interferon beta-1a IM” value (MS [1]; 0.5 mg daily) does the source give for `CCCCCCCCc1ccc(CCC(N)(CO)CO)cc1` [Fingolimod, fingolimod] here?
A: 52%

Q: And the “number of new and newly enlarged T2 lesions on MRI scans” value (MS [1])?
A: 1.6

Q: And the “reduction in relapse rate compared with placebo” value (MS [2])?
A: 54%

Q: What about the “reduction in the risk of disability progression compared with placebo” value (MS [2]) of the same molecule?
A: 30%
